Experimental data as given in PubChem BioAssay AID590 (National Center for Advancing Translational Sciences (NCATS), 2007).
The campaign covered roughly 59,000 compounds. About 6,500 (11%) were called active. The shares of active, inactive and inconclusive entries below differ from those in the screen. Rule as the data show it: active = max dye-equivalent concentration above about 10 nM; inconclusive = mostly about 1.1 nM to 9.6 nM; inactive = weaker than that.

assay: qHTS Assay for Spectroscopic Profiling in A350 Spectral Region; conditions: Compound autofluorescence, 340/450 nm, Alexa 350 dye-equivalents; hits give high values

| SMILES | max dye-equivalent concentration |
| --- | --- |
| COc1ccc2[nH]c(=O)c(CN(C)C(=O)C3CCCCC3)cc2c1 | active: 280 nM |
| CCOC(=O)c1cccc(N2C(=O)c3ccccc3S2(=O)=O)c1 | active: 20 nM |
| CC1=C(C(=O)OCc2ccccc2)C(c2ccoc2)C(C#N)=C(N)O1 (centres undefined) | inconclusive: 3.3 nM |
| CCOC(=O)N1CC=C2C(C#N)=C(N)C(C#N)(C#N)[C@H](c3ccc(OC(C)C)c(OCC)c3)[C@H]2C1 | inconclusive: 6.2 nM |
| Cc1oc2cc(OC(C)C(=O)O)ccc2c(=O)c1Oc1ccccc1 (centres undefined) | inactive |
| Cc1ccc(-n2c(Cc3cccs3)nnc2SCC(=O)OC(C)C)cc1 | inconclusive: 1.7 nM |
| CC(C)(SCc1ccccc1)[C@H](N)C(=O)O | inactive |
| COc1ccc(OC)c2c(C)cc(N3CCN(C(=O)c4ccc(F)cc4)CC3)nc12 | active: 34 nM |
| CCN(Cc1ccncc1)S(=O)(=O)c1ccc(C(C)=O)cc1 | inactive |
| Cn1c(SCC(=O)N2CCCCC2)nc2cccnc21 | inactive |
| Cn1c(SCc2nc3ccccc3n2CCO)nc2ccccc21 | inconclusive: 7.7 nM |
| O=c1c2[nH]c3ccccc3c2ncn1CCC1=CCCCC1 | inactive |
| COc1cc(NC(=O)Cn2nnc(-c3ccccc3N)n2)cc(OC)c1 | inconclusive: 1.2 nM |
| COC(=O)c1cc(NC(=O)CSc2nnc(CN3CCOCC3)n2C)ccc1Cl | inconclusive: 6.8 nM |
| O=C(Nc1nccs1)c1c(O)c2cccc3c2n(c1=O)CCC3 | active: 17 nM |
| O=C(NCc1ccccn1)c1c(Cl)cccc1Cl | inconclusive: 1.3 nM |
| COC(=O)CSC1=C(C#N)C(c2sccc2C)CC(=O)N1 (centres undefined) | inconclusive: 1.2 nM |
| Cc1cc(=O)[nH]c(S/C=C/c2ccccc2)n1 | inconclusive: 2.3 nM |
| CN(C)c1nc(-c2cccc(NS(C)(=O)=O)c2)nc2ccccc12 | inactive |
| CCOC(=O)CC(=O)CSc1ncc(C(=O)OCC)c(N)n1 | inactive |
| Cc1cc2cc(CN(Cc3cccs3)Cc3nnnn3CC3CCCO3)c(=O)[nH]c2cc1C (centres undefined) | inconclusive: 4.2 nM |
| CCOc1cc(N2CCOCC2)c(OCC)cc1NC(=O)c1nc2nc(C)cc(C)n2n1 | inconclusive: 1.9 nM |
| c1ccc(CCc2ccccc2-c2nc(-c3ccccn3)no2)cc1 | inconclusive: 1.1 nM |
| Cc1cccc(-c2c3c(=O)n(C)c(=O)n(C)c3cn2C(C)(C)C)c1 | inconclusive: 1.3 nM |

Six compounds already listed, sorted by molecular weight, ascending.

| SMILES | max dye-equivalent concentration |
| --- | --- |
| Cc1cc(=O)[nH]c(S/C=C/c2ccccc2)n1 | inconclusive: 2.3 nM |
| COC(=O)CSC1=C(C#N)C(c2sccc2C)CC(=O)N1 (centres undefined) | inconclusive: 1.2 nM |
| O=C(Nc1nccs1)c1c(O)c2cccc3c2n(c1=O)CCC3 | active: 17 nM |
| COc1ccc2[nH]c(=O)c(CN(C)C(=O)C3CCCCC3)cc2c1 | active: 280 nM |
| Cn1c(SCc2nc3ccccc3n2CCO)nc2ccccc21 | inconclusive: 7.7 nM |
| Cc1oc2cc(OC(C)C(=O)O)ccc2c(=O)c1Oc1ccccc1 (centres undefined) | inactive |

(more compounds)

| SMILES | max dye-equivalent concentration |
| --- | --- |
| CCN(CC)S(=O)(=O)c1ccc(Nc2cc(C)nc3ncnn23)cc1 | inconclusive: 5.3 nM |
| COc1ccc(-c2nnc(CSc3nc4ccccc4c(=O)n3CC3CCCO3)o2)cc1OC (centres undefined) | inactive |
| Cc1cc(C)nc(CC(N)=O)n1 | inconclusive: 3.4 nM |
| COc1ccc(-n2ncc3c(NCCCN4CCOCC4)ncnc32)cc1 | inconclusive: 1.9 nM |
| Cc1ccc2c(C(=O)CN3CCN(c4ccccc4)CC3)c(C)[nH]c2c1 | inconclusive: 1.2 nM |
| COc1ccccc1CNc1ccnc(-c2cccc(NS(C)(=O)=O)c2)n1 | inactive |
| Cc1ccc(OCCCC(=O)Nc2ccc(S(=O)(=O)Nc3cc(C)on3)cc2)cc1 | inactive |
| CCSc1nc(N)c(C#N)c(-c2ccccc2Cl)c1C#N | inconclusive: 1.7 nM |
| COc1ccc(OC)c(C(=O)COC(=O)c2c(OC)cccc2OC)c1 | inconclusive: 7.2 nM |
| COc1ccc(C2C=C(c3ccc(Br)s3)Nc3ncnn32)cc1OC (centres undefined) | inconclusive: 3.8 nM |
| CCOCc1nnc(NC(=O)COC)s1 | inactive |
| CCN(CC)CCOC(=O)c1c(C)n(C)c2ccc(OC)cc12 | inactive |
| O=C(CCC1N=C2c3ccccc3N=C(SCc3ccccc3Cl)N2C1=O)NCc1ccco1 (centres undefined) | active: 60 nM |
| CCOc1ccc2nc(NC(=O)CSc3nnc(-c4ccncc4)n3CC3CCCO3)sc2c1 (centres undefined) | inactive |
| Cc1c(C(=O)N2CCOCC2)sc(NC(=O)c2ccc3c(c2)OCO3)c1C#N | inconclusive: 3.1 nM |
| Cc1cc(C(=O)NCCC2=CCCCC2)c(C)o1 | inactive |
| COc1ccc2c3c(c(=O)oc2c1OCC(=O)C(C)(C)C)CCCC3 | inconclusive: 4.3 nM |
| O=C(CSc1nnc2ccccn12)NC(=O)NC1CCCC1 | inactive |
| O=C(NCc1ccccn1)C1CCN(S(=O)(=O)c2cnc[nH]2)CC1 | inconclusive: 1.6 nM |
| CC1CCCC(NC(=O)c2ccc3c(=O)n(CC4CCCO4)c(=O)[nH]c3c2)C1C (centres undefined) | active: 14 nM |
| O=C(NC1CC2CCCC(C1)N2C1CC1)NC12CC3CC(CC(C3)C1)C2 (centres undefined) | inconclusive: 1.1 nM |
| O=C(O)c1cc(N=Cc2ccccc2O)cc(C(=O)O)c1 | inactive |
| CCOC(=O)c1[nH]c2ccc(OC)cc2c1NC(=O)CN1CCC2(CC1)OCCO2 | active: 62 nM |
| COc1ccc(F)cc1CN1CCN(C(=O)CCC(=O)Nc2nnc(C(C)C)s2)CC1 | active: 17 nM |

| SMILES | max dye-equivalent concentration |
| --- | --- |
| CCOC(=O)C1=C(N)Oc2cc(C)[nH]c(=O)c2C1c1ccncc1 (centres undefined) | inconclusive: 2.5 nM |
| CCCCOc1ccc(-c2nnn(CC(=O)Nc3ncc(CC(=O)OCC)s3)n2)cc1 | inactive |
| O=C(c1c[nH]c(=O)n(-c2ccccc2)c1=O)N1CCc2ccccc21 | active: 12 nM |
| COc1ccc(-c2nc3cccc(C)n3c2NCc2ccco2)cc1OC | active: 120 nM |
| COc1ccc2cc(C(c3nnnn3Cc3ccc(F)cc3)N3CCCCCC3)c(=O)[nH]c2c1 (centres undefined) | inconclusive: 7 nM |
| COc1ccccc1CN(Cc1cc2cc(C)cc(C)c2[nH]c1=O)Cc1nnnn1CC1CCCO1 (centres undefined) | inconclusive: 3.4 nM |
| C=CCn1c(SCC(=O)c2ccc(NS(=O)(=O)c3ccccc3)cc2)nnc1-c1cccs1 | inactive |
| CC(=O)c1cnc(Nc2nc(C)c3cccc(C)c3n2)nc1C | inactive |
| O=C(CN(C(=O)CCC(=O)Nc1nccs1)c1ccc(F)cc1)NCC1CCCO1 (centres undefined) | inconclusive: 1.1 nM |
| COC(=O)c1c(C)[nH]c(C)c1C(=O)c1ccccc1Cc1ccccc1 | inactive |
| Nc1nc(N)nc(CCCc2nc(N)nc(N)n2)n1 | inactive |
| CC(C)CN1CCC2(CC1)CCN(C(=O)c1ccco1)CC2 | inactive |
| CCCCNc1nc(SC)nc2nc[nH]c12 | inactive |
| N#CC1=C(N)N2C(=C(C#N)C1c1ccccc1)Sc1ccccc12 (centres undefined) | inconclusive: 7.3 nM |
| COc1ccccc1OC[C@H](O)COC(N)=O | active: 46 nM |
| Cc1ccc(-c2nc3cccnc3s2)cc1NC(=O)c1ccco1 | inconclusive: 5 nM |
| CCc1ccc2[nH]c(=O)c(CN(CCN(C)C)C(=O)Nc3ccccc3)cc2c1 | inactive |
| CC1CCN(S(=O)(=O)c2ccc(S(=O)(=O)NCC3COCCO3)cc2)CC1 (centres undefined) | inconclusive: 1.9 nM |
| CCn1c(SCc2nc3ccccc3nc2C)nnc1-c1cccs1 | inconclusive: 1.2 nM |
| COc1cc(C2Nc3cccc4cccc(c34)N2)cc(OC)c1O | inconclusive: 1.6 nM |
| O=C(O)[C@H]1[C@H](C(=O)O)[C@H](C(=O)O)C[C@@H]1C(=O)O | inactive |
| CCN(CC)c1nc(C)c2c(c1C#N)CC(C)(C)OC2 | active: 200 nM |
| Fc1ccccc1Cn1nnc2c(-n3ccnc3)ncnc21 | inactive |
| COc1cc(OC)nc(NC(=O)CSc2nc3ccccc3o2)n1 | inconclusive: 6 nM |

| SMILES | max dye-equivalent concentration |
| --- | --- |
| O=C(CSc1nnnn1-c1ccc2c(c1)OCCO2)OC1CCCCC1 | inactive |
| Cc1[nH]n2c(=O)cc(C(C)C)nc2c1-c1ccccc1 | inconclusive: 6 nM |
| CCC1CCCN1Cn1cnc2c([nH]c3ccc(OC)cc32)c1=O (centres undefined) | active: 250 nM |
| O=C(NCC1CCS(=O)(=O)C1)NCC1CCS(=O)(=O)C1 (centres undefined) | inconclusive: 8.7 nM |
| CC(C)(C)c1ccc(NC(=O)COC(=O)C2=COCCO2)cc1 | inconclusive: 2.7 nM |
| O=C(CN(c1ccc(F)cc1)S(=O)(=O)c1ccc2c(c1)OCCO2)NCc1ccccn1 | active: 340 nM |
| CCCCSCc1nc2nc(Cl)c(Cl)nc2[nH]1 | inconclusive: 1.2 nM |
| COCc1cc(=O)[nH]c(Nc2nc3ccc(C)cc3o2)n1 | inconclusive: 3.4 nM |
| COc1cccc(Cn2c(NCC(C)C)nc3c2c(=O)n(C)c(=O)n3C)c1 | inconclusive: 1.3 nM |
| COc1ccccc1-c1ccc2ncnc(NCCN3CCOCC3)c2c1 | inconclusive: 6.2 nM |
| CCOC(=O)c1nnn(-c2nonc2N)c1CN(C)Cc1ccccc1 | inactive |
| CCCC(=O)Nc1cc(-c2cn3cccnc3n2)ccc1OC | active: 180 nM |
| O=C(NCCCN1CCN(C2CCCCC2)CC1)Nc1ccccc1C(F)(F)F | inconclusive: 1.3 nM |
| Cc1nc(SCC(=O)N2CCN(c3ccccc3)CC2)c2oc3ccccc3c2n1 | inactive |
| O=C(O)C1Cc2c([nH]c3ccccc23)C(c2ccc3c(c2)OCO3)N1 (centres undefined) | active: 31 nM |
| CC1=CC2(C#N)C3(N=C(N)C2(C#N)C(c2ccccc2)N1)OCCO3 (centres undefined) | active: 17 nM |
| COC(=O)c1sc(NC(=O)COc2ccccc2)nc1C | inconclusive: 1.7 nM |
| COc1cccc(Cn2c(=O)c(-c3ccc(Cl)cc3)nc3cnc(N(C)C)nc32)c1 | active: 17 nM |
| CCOC(=O)CSc1nc(N2CCOCC2)c2c(c1C#N)CC(C)(C)N(C)C2 | active: 16 nM |
| Cc1ccc(NC(=O)COc2nc(C)cs2)cc1 | inactive |
| CCOC(=O)CSc1nnc(C)c(=O)[nH]1 | inactive |
| c1coc(-c2nn3c(-c4ccco4)nnc3s2)c1 | inactive |
